# Where “and” joins values, the source holds several entries; their conditions need not be identical. Equal values may be shown once. This list was built around the results that the source calls inconclusive (neither active nor inactive); the mix of calls is not that of the screen. For some assays here: Potencies beside an inconclusive call are fits to weak or partial responses and may not hold up. Where a structure was tested more than once in an assay, its records may differ in their call. Calls of active or inactive are those of the source. Rule for the calls: active = hit-call score of the fitted dose curve at least 0.9, where 1 is the maximum; inconclusive = response in the unintended direction; inactive = score below 0.9.
# The chains behind the UniProt entries cited, without tags or fusion partners. Where a name states a change or a piece, a line headed by the entry shows the natural chain unless it says otherwise.
# UniProt P62508: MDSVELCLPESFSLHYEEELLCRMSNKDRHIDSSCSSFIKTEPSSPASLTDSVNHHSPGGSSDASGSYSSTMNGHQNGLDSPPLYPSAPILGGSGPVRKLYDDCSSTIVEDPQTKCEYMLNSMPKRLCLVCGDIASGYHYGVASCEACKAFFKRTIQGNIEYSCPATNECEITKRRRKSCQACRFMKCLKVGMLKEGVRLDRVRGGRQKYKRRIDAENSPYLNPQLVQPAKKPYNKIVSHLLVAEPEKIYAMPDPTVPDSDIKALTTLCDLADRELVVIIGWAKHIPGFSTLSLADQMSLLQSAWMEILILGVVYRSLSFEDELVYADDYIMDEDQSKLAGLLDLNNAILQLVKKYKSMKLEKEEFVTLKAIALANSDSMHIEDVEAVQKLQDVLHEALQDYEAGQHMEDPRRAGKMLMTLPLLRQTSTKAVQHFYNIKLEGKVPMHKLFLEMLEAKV
# UniProt P04150: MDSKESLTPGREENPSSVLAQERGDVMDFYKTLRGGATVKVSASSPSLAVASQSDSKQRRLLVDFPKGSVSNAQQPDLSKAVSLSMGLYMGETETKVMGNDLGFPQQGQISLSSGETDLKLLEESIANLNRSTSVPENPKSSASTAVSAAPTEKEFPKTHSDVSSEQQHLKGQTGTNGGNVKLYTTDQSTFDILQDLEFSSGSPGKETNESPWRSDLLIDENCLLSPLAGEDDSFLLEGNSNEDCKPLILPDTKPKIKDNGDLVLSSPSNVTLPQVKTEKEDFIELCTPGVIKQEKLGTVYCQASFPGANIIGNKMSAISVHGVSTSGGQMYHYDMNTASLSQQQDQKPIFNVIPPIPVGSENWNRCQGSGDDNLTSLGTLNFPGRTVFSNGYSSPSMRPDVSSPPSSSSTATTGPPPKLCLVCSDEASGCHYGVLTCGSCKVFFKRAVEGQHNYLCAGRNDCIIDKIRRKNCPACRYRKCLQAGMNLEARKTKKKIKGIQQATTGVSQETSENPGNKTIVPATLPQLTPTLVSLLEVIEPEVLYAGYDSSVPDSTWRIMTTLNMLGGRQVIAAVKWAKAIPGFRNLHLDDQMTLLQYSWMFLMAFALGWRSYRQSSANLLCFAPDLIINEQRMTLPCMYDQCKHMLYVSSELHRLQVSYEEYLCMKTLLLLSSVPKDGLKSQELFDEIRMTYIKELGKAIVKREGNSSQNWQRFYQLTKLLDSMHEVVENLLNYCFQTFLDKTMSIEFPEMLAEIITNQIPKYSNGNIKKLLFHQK
# UniProt Q03181: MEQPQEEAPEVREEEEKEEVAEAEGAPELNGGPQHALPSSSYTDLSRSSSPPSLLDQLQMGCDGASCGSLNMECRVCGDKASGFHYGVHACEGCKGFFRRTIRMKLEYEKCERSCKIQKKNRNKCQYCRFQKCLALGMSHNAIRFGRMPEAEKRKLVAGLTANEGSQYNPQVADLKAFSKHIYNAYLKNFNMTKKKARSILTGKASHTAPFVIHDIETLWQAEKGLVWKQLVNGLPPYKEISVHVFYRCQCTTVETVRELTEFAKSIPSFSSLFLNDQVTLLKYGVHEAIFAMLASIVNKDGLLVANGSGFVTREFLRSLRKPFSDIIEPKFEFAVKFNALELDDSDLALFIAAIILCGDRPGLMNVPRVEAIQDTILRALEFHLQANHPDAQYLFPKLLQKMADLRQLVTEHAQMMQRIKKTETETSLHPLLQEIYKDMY
# UniProt P37231: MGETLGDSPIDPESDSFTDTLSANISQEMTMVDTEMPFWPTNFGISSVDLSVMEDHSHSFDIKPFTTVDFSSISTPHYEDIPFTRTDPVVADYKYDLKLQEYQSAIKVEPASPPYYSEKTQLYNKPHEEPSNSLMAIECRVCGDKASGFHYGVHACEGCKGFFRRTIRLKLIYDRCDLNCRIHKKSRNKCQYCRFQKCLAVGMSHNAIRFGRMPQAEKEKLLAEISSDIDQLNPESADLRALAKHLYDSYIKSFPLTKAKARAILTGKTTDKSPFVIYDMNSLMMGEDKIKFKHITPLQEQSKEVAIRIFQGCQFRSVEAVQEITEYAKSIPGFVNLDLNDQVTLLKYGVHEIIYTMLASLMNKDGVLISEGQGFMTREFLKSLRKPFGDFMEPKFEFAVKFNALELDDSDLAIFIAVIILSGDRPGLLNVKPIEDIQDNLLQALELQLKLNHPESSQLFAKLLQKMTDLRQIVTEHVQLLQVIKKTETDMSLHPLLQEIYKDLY
# UniProt P19793: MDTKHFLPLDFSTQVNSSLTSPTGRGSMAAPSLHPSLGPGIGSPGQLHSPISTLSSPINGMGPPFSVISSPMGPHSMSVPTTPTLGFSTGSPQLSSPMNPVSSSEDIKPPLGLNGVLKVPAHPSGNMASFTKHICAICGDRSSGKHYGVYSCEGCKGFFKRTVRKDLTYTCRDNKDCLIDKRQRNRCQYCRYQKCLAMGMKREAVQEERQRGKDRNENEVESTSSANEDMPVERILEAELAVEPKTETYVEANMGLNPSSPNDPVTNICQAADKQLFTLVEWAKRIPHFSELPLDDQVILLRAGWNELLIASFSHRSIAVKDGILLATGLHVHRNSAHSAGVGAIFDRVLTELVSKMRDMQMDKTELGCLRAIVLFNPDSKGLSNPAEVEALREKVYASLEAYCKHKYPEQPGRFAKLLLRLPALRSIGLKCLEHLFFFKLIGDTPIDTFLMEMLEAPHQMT
# UniProt P04637, whole entry, looked up: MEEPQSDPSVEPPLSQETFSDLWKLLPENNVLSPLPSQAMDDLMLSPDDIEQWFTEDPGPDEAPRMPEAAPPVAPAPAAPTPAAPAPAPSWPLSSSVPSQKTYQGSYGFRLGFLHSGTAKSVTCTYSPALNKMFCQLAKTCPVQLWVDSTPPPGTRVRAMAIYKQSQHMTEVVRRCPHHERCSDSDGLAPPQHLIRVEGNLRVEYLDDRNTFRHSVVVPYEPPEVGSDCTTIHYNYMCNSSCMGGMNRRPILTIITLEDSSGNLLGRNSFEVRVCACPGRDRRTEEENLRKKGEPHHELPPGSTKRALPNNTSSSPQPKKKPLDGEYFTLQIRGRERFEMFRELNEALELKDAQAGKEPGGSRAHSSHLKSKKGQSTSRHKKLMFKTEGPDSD
# UniProt P04406: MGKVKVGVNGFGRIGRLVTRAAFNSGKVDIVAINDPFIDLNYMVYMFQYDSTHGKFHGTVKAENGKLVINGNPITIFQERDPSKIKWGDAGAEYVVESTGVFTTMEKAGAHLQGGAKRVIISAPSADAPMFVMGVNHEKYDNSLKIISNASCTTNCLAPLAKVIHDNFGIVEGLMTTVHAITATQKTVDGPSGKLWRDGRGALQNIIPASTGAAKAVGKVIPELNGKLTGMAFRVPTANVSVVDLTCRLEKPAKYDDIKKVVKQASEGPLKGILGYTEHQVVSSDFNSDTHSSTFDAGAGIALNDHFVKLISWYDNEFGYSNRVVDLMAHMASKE
# UniProt P55055, whole entry, looked up: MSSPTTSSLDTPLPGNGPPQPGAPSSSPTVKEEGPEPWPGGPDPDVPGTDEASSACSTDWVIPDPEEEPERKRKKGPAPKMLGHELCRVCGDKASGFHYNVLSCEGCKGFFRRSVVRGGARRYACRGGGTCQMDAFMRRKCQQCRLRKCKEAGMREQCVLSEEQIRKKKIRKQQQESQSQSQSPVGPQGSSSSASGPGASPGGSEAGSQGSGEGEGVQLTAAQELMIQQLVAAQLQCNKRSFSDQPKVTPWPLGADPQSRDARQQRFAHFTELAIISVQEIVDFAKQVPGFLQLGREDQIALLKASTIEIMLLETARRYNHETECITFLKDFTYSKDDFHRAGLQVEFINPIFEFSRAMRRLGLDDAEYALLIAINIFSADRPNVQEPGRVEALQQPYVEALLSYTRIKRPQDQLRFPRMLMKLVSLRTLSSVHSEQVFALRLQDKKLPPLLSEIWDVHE
# UniProt P11473: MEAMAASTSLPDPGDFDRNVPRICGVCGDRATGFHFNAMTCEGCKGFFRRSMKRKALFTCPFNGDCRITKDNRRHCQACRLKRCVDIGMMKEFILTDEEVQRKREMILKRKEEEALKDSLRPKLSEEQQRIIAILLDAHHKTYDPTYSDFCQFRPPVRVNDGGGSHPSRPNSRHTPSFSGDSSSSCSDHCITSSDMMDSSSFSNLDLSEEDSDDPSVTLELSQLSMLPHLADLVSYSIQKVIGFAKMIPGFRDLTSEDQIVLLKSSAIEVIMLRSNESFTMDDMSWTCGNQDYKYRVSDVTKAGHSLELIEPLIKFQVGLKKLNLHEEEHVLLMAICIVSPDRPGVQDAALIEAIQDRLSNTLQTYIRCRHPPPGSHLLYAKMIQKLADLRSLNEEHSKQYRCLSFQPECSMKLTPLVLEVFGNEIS
# UniProt Q96RI1: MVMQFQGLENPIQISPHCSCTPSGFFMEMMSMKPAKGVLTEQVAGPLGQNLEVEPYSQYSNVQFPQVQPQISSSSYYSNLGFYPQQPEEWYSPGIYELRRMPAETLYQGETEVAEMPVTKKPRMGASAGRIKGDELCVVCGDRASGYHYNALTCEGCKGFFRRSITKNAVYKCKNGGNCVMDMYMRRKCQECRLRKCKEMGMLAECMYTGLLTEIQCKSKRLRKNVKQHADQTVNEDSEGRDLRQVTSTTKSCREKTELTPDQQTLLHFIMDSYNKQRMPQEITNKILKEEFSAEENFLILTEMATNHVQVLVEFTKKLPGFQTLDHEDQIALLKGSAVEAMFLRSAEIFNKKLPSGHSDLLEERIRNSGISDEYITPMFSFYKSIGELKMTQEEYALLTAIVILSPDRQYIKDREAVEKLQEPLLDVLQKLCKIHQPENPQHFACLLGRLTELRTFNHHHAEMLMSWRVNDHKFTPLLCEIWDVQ
# Columns and labels:
# [1] = target: Estrogen-related receptor gamma (Homo sapiens) (UniProt P62508); assay: ATG_ERRg_TRANS: Attagene TRANS-FACTORIAL HepG2 Assay for human Estrogen-Related Receptor gamma (ERRg) (AID 2282977); conditions: HepG2 Attagene TRANS reporter, ERRg transactivation;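 note: hits increase reporter signal over DMSO so potencies reflect activators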
# Outline: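 HepG2 cells transiently transfected with multiplexed GAL4-UAS reporter units driven by chimeric NR-Gal4 proteins; 24 h exposure. Reporter mRNA quantified by RT-PCR, fluorescent labelling, HpaI digestion and capillary electrophoresis; gain of signal vs DMSO.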
# [2] = target: Glucocorticoid receptor (Homo sapiens) (UniProt P04150); assay: ATG_GR_TRANS: Attagene TRANS-FACTORIAL HepG2 Assay for human Glucocorticoid Receptor (GR) (AID 2282978); conditions: HepG2 Attagene TRANS GR reporter, mRNA transcription;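 note: activators score as hits since higher reporter transcript over DMSO is fitted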
# Outline: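 Transient MRTU transfection of HepG2 (GAL4-UAS reporters, exogenous NR-GAL4 chimeras), 24 h dosing. Readout: reporter transcript via RT-PCR + capillary electrophoresis fluorescence. Positive direction vs DMSO baseline.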
# [3] = ATG_M_06_TRANS: Attagene TRANS-FACTORIAL HepG2 Assay for M06 Transcription Factor (Internal Marker) (AID 2282983); conditions: HepG2 Attagene TRANS M06 internal marker reporter;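 for AC50: potency for rise in reporter mRNA above DMSO baseline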
# Outline: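 Transfect HepG2 with MRTUs → dose compounds 24 h → isolate RNA, oligo(dT) RT → PCR with reporter primers → 6-FAM primer extension → HpaI digest → CE fragment analysis. Positive direction vs DMSO.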
# [4] = target: human Peroxisome Proliferator-activated Receptor delta (PPARd), PPARD (gene 5467) (UniProt Q03181); assay: ATG_PPARd_TRANS: Attagene TRANS-FACTORIAL HepG2 Assay for human Peroxisome Proliferator-activated Receptor delta (PPARd) (AID 2283002)
# Outline: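 Measured quantity: GAL4-UAS reporter transcript induction in HepG2 after 24 h chemical dosing, with NR-Gal4 chimeras supplied by transient transfection. Detection by RT-PCR and capillary electrophoresis; upward fit against DMSO.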
# [5] = target: Peroxisome proliferator-activated receptor gamma (Homo sapiens) (UniProt P37231); assay: ATG_PPARg_TRANS: Attagene TRANS-FACTORIAL HepG2 Assay for human Peroxisome Proliferator-activated Receptor-gamma (PPARg) (AID 2283007)
# Outline: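 Read-out: reporter mRNA induction, detected by fluorescence after RT-PCR and capillary electrophoresis. Transiently transfected human HepG2 liver cells carrying a chimeric NR-Gal4 construct were dosed for 24 h; activity was fitted upward relative to DMSO.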
# [6] = target: Retinoic acid receptor RXR-alpha (Homo sapiens) (UniProt P19793); assay: OT_NURR1_NURR1RXRa_0480: Odyssey Thera (OT) 8-hour HEK293T Protein Complementation Assay for Nurr1/retinoid X receptor (RXR) (AID 2283385)
# Outline: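 HEK293T cells expressing Nurr1 and RXRα fused to reporter fragments (protein-fragment complementation); fluorescence measured 8 h after dosing. Gain of signal fitted relative to DMSO.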
# [7] = target: Retinoic acid receptor RXR-alpha (Homo sapiens) (UniProt P19793); assay: OT_NURR1_NURR1RXRa_1440: Odyssey Thera (OT) 24-hour HEK293T Protein Complementation Assay for Nurr1/retinoid X receptor (RXR) (AID 2283386)
# Outline: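 HEK293T protein-fragment complementation of Nurr1 and RXRα fused to reporter fragments; compounds 24 h. Fluorescence gain from reconstituted reporter fitted versus DMSO.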
# [8] = target: Cellular tumor antigen p53 (Homo sapiens) (UniProt P04637); assay: TOX21_p53_BLA_p4_ratio: Tox21 HCT-116 p53 Agonism Beta-lactamase Assay, Ratio, Phase 4 (AID 2283601)
# Outline: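 HCT116 cells carrying an inducible beta-lactamase reporter were plated at 4000 cells/well, rested 5 h, then exposed to compounds in DMSO (217-fold dilution) for 16 h at 37C. CCF4-AM substrate was loaded 2 h at room temperature; 460/530 nm emission ratio scored gain-of-signal versus DMSO.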
# [9] = read-out: HMG-CoA synthase (HMGCS2), HMGCS2 (gene 3158); assay: CLD_HMGCS2_24hr: CellzDirect (CLD) Gene Expression Assay for HMG-CoA synthase (HMGCS2) at 24 hours (AID 2283691)
# Outline: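 Primary human hepatocytes from two donor preparations, dosed daily with fresh solutions; vehicle 0.2% DMSO, 24 h harvest. HMGCS2 mRNA quantified by qNPA with S1 nuclease digestion and chemiluminescence; gain fitted versus DMSO, cytotoxicity annotated by morphology.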
# [10] = read-out: Glyceraldehyde-3-phosphate dehydrogenase (Homo sapiens) (UniProt P04406); assay: CLD_GAPDH_24hr: CellzDirect (CLD) Gene Expression Assay for Baseline Control (Glyceraldehyde 3-phosphate dehydrogenase) at 24 hours (AID 2283692)
# Outline: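 Primary human hepatocytes (two donor preparations) dosed daily for two days, 0.2% DMSO vehicle; GAPDH mRNA measured at 24 h by qNPA chemiluminescence as a background control, gain-of-signal fitted against DMSO.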
# [11] = read-out: HMG-CoA synthase (HMGCS2), HMGCS2 (gene 3158); assay: CLD_HMGCS2_48hr: CellzDirect (CLD) Gene Expression Assay for HMG-CoA synthase (HMGCS2) at 48 hours (AID 2283711)
# Outline: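 Primary human hepatocytes from two donors dosed daily for two days, 0.2% DMSO vehicle. HMGCS2 mRNA measured 48 h after dosing by quantitative nuclease protection assay with chemiluminescent read-out; induction fitted relative to DMSO, cytotoxicity flagged by microscopy.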
# [12] = target: Oxysterols receptor LXR-beta (Homo sapiens) (UniProt P55055); assay: ATG_LXRb_TRANS: Attagene TRANS-FACTORIAL HepG2 Assay for human Liver X Receptor beta (LXRb) (AID 2282981); conditions: HepG2 Attagene TRANS GAL4-LXRb reporter, mRNA
# Outline: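 In this TRANS format, exogenous chimeric NR-Gal4 protein activity, not endogenous factors, drives reporter expression in transfected human HepG2 cells. Exposure lasted 24 h; reporter mRNA was read by fluorescent capillary electrophoresis.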
# [13] = target: human Vitamin D Receptor (VDR), VDR (gene 7421) (UniProt P11473); assay: ATG_VDR_TRANS: Attagene TRANS-FACTORIAL HepG2 Assay for human Vitamin D Receptor (VDR) (AID 2283022)
# Outline: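 Steps: transfect HepG2 with GAL4-UAS-driven reporter constructs; dose compounds 24 h; isolate RNA, reverse-transcribe, PCR-amplify with 6-FAM-labelled primer extension and HpaI digestion; quantify fragments by capillary electrophoresis relative to DMSO.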
# [14] = ACEA_ER_AUC_viability: ACEA Biosciences xCELLigence Real-Time Cell Analysis on Estrogen Receptor Agonism for Viability (AID 2283782);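 note: continuous compound exposure with impedance area under curve over 80 h; hit means loss of impedance signal meaning reduced cell growth or viability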
# Outline: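 T-47D human breast cells in phenol red-free RPMI1640 with 10% charcoal-stripped FBS were dosed with an 8-point 1:4 dilution series from 100 uM top final concentration, in duplicate. Impedance-based growth was followed for 80 h; AUC analysed versus DMSO.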
# [15] = target: Cellular tumor antigen p53 (Homo sapiens) (UniProt P04637); assay: TOX21_p53_BLA_p2_ratio: Tox21 HCT-116 p53 Agonism Beta-lactamase Assay, Ratio, Phase 2 (AID 2283592)
# Outline: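 HCT116 p53-bla; 4000 cells/well; 5 h pre-incubation; cpd in DMSO, 217-fold dilution; 16 h 37C/5% CO2; CCF4-AM 2 h RT; Ex 405, Em 460/530 ratio; DMSO = baseline; positive fitting direction.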
# [16] = target: Cellular tumor antigen p53 (Homo sapiens) (UniProt P04637); assay: TOX21_p53_BLA_p3_ratio: Tox21 HCT-116 p53 Agonism Beta-lactamase Assay, Ratio, Phase 3 (AID 2283596)
# Outline: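 HCT116 p53-bla cells (4000/well) given compound in DMSO (217-fold dilution) after 5 h, incubated 16 h at 37C. CCF4-AM substrate 2 h at room temperature; 460/530 nm emission ratio, gain fitted against DMSO.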
# [17] = target: Cellular tumor antigen p53 (Homo sapiens) (UniProt P04637); assay: TOX21_p53_BLA_p5_ratio: Tox21 HCT-116 p53 Agonism Beta-lactamase Assay, Ratio, Phase 5 (AID 2283599)
# Outline: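 HCT-116 cells carrying a p53-inducible beta-lactamase reporter were seeded at 4000 cells/well and dosed after 5 h with compound in DMSO (217-fold dilution). After 16 h at 37C, CCF4-AM substrate was added for 2 h, and the 460/530 nm emission ratio was scored as gain-of-signal versus DMSO.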
# [18] = CCTE_Harrill_HTTr_CellCount_MCF7: CCTE's Cell Proliferation Assessment for the High-Throughput Transcriptomics (HTTr) Platform, Harrill Lab (AID 2284012);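 note: cells exposed to compound for six hours; intended direction is loss of nuclei count meaning fewer cells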
# Outline: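 MCF7 cells exposed 6 hours to an eight-point dilution series; Hoechst-stained nuclei counted by high-content imaging. Bidirectional curve fitting against DMSO baseline.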
# [19] = target: Bile acid receptor (Homo sapiens) (UniProt Q96RI1); assay: ATG_FXR_TRANS: Attagene TRANS-FACTORIAL HepG2 Assay for Farnesoid X Receptor (FXR) (AID 2282979); conditions: HepG2 Attagene TRANS FXR-GAL4 reporter transcription;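 note: hits raise reporter mRNA above DMSO so AC50 marks FXR activation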
# Outline: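 Transient transfection of HepG2 with multiplexed GAL4-UAS reporter units; exogenous FXR-GAL4 chimera. Dose 24 h → TriZol RNA → oligo(dT) RT → PCR, 6-FAM primer extension, HpaI cut → CE. Gain vs DMSO.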
# [20] = TOX21_p53_BLA_p5_viability: Viability Assessment in the Tox21 HCT-116 p53 Agonism Beta-lactamase Assay, Phase 5 (AID 2283600)
# Outline: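 4000 cells/well; 5 h pre-incubation; DMSO compounds pin-transferred, 217-fold dilution; 16 h, 37C/5% CO2; CCF4-AM 2 h RT; CellTiter-Glo 30 min RT; luminescence.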
compound,measurement,setting,value
CS/C(C)=N/OC(=O)N(C)SN(C)C(=O)O/N=C(\C)SC,outcome,[1],inactive
same,AC50,[2],inconclusive: 3.92 µM
same,AC50,[3],inconclusive: 3.92 µM
same,AC50,[4],inconclusive: 0.00101 µM
same,outcome,[5],inactive
same,AC50,[6],inconclusive: 25.9 µM and inconclusive: 32.3 µM
same,AC50,[7],inconclusive: 28.1 µM
same,outcome,[8],inactive
same,outcome,[9],inactive
same,AC50,[10],inconclusive: 20 µM
same,outcome,[11],inactive
O=C(O)COc1cc(Cl)c(Cl)cc1Cl,AC50,[1],inconclusive: 100 µM
same,AC50,[12],inconclusive: 100 µM
same,AC50,[13],inconclusive: 26.5 µM
same,AC50,[6],inconclusive: 50 µM
same,outcome,[14],inactive
COC(=O)N(OC)c1ccccc1COc1ccn(-c2ccc(Cl)cc2)n1,AC50,[5],active: 0.592 µM
same,AC50,[13],inconclusive: 6.05 µM
same,AC50,[6],inconclusive: 26.2 µM
same,AC50,[7],inconclusive: 13.1 µM
same,AC50,[15],active: 1.09 µM
same,AC50,[16],active: 1.51 µM
same,AC50,[17],active: 1.9 µM
same,AC50,[8],active: 1.67 µM
same,AC50,[9],inconclusive: 36.7 µM
same,AC50,[10],inconclusive: 1.9 µM
same,outcome,[11],inactive
same,AC50,[18],inconclusive: 0.0205 µM
Cc1cc(C)nc(NC(=O)NS(=O)(=O)c2ccccc2C(=O)OC2COC2)n1,outcome,[1],inactive
same,outcome,[2],inactive
same,AC50,[19],inconclusive: 50 µM
same,AC50,[4],inconclusive: 50 µM
same,AC50,[9],inconclusive: 3.97 µM
same,outcome,[10],inactive
same,outcome,[11],inactive
C=C(C)[C@@H]1CC=C(C=O)CC1,AC50,[1],inconclusive: 100 µM
same,outcome,[19],inactive
same,outcome,[16],inactive
same,AC50,[20],inconclusive: 46.1 µM
COc1cc(OC)nc(Sc2cccc(Cl)c2C(=O)O)n1,outcome,[1],inactive
same,outcome,[12],inactive
same,AC50,[6],inconclusive: 0.618 µM
same,outcome,[6],inactive
same,outcome,[7],inactive
same,outcome,[9],inactive
same,outcome,[10],inactive
same,outcome,[11],inactive
same,AC50,[14],inconclusive: 0.0144 µM
same,AC50,[18],inconclusive: 50 µM
Brc1c(Br)c(Br)c(Oc2c(Br)c(Br)c(Br)c(Br)c2Br)c(Br)c1Br,AC50,[1],inconclusive: 25 µM
same,AC50,[19],inconclusive: 0.0206 µM
same,outcome,[4],inactive
same,outcome,[14],inactive
CC(=O)CN(CC(C)=O)N=O,AC50,[1],inconclusive: 100 µM
same,outcome,[2],inactive
same,AC50,[12],inconclusive: 0.0874 µM
same,outcome,[15],inactive
same,AC50,[16],inconclusive: 46.1 µM
same,AC50,[17],inconclusive: 46.1 µM
same,AC50,[20],inconclusive: 46.1 µM
same,AC50,[8],inconclusive: 46.1 µM
ClC1=C(Cl)C2(Cl)C3C(Cl)C(Cl)CC3C1(Cl)C2(Cl)Cl (stereo not drawn),AC50,[1],inconclusive: 100 µM
same,AC50,[19],active: 54.7 µM
same,outcome,[12],inactive
same,outcome,[3],inactive
same,outcome,[4],inactive
same,AC50,[6],inconclusive: 50 µM
same,AC50,[7],inconclusive: 31.7 µM and inconclusive: 33 µM
same,AC50,[15],active: 61.5 µM and active: 80.2 µM
same,AC50,[16],active: 86.1 µM
same,outcome,[16],inactive
same,AC50,[17],active: 86.4 µM
same,AC50,[20],active: 46.1 µM
same,AC50,[8],active: 63.5 µM
same,AC50,[14],active: 91.7 µM
same,AC50,[18],inconclusive: 50 µM
N#CC(c1ccccc1)c1ccccc1,AC50,[1],inconclusive: 100 µM
same,AC50,[2],inconclusive: 23.8 µM
same,AC50,[5],active: 83.2 µM
same,AC50,[16],inconclusive: 46.1 µM
same,AC50,[17],inconclusive: 46.1 µM
same,AC50,[20],inconclusive: 46.1 µM
same,AC50,[8],inconclusive: 46.1 µM

# A run of entries taken from the entries so far, for reference:
compound,measurement,setting,value
COC(=O)N(OC)c1ccccc1COc1ccn(-c2ccc(Cl)cc2)n1,AC50,[9],inconclusive: 36.7 µM
same,AC50,[10],inconclusive: 1.9 µM
same,outcome,[11],inactive
same,AC50,[18],inconclusive: 0.0205 µM
Cc1cc(C)nc(NC(=O)NS(=O)(=O)c2ccccc2C(=O)OC2COC2)n1,outcome,[1],inactive
same,outcome,[2],inactive

# From PubChem BioAssay (EPA / NIEHS)
